# Measured values published in patent US20230372381A1, “COMPOSITIONS AND METHODS UTILIZING PROTEIN INHIBITORS FOR […] INHIBITION AND TREATMENT OF SARS-CoV-2” (Rensselaer Polytechnic Institute, priority 2020, published 2023).
# For some assays here: At least one structure is not confirmed: it was looked up by name or label, or the drawing left a doubt. Some entries share one result that the patent states for a list of compounds.
# Legend:
# SARS-CoV-2 = assay: Combination antiviral (synergy) assay with remdesivir; assay type: cell-based; details: inhibition of SARS-CoV-2 replication in combination with remdesivir
# SARS-CoV-2 M^pro = SARS-CoV-2 M^pro (Severe acute respiratory syndrome coronavirus 2, UniProt P0DTD1); assay: M^pro protease inhibition (FRET assay); assay type: biochemical; details: read-out: IC50 of SARS-CoV-2 M^pro protease activity
SMILES,interaction with remdesivir (additive or synergistic) (SARS-CoV-2),IC50 (SARS-CoV-2 M^pro) [µM]
"CCCC[C@H](NC(=O)[C@@H]1[C@@H]2[C@H](CN1C(=O)[C@@H](NC(=O)NC1(CS(=O)(=O)C(C)(C)C)CCCCC1)C(C)(C)C)C2(C)C)C(=O)C(=O)NC1CC1 [NAR, narlaprevir]",additive,
"CC[C@@H]1C[C@]1(NC(=O)[C@@H]1C[C@@H]2CN1C(=O)[C@H](C(C)(C)C)NC(=O)OCC(C)(C)CCCCc1cccc3c1CN(C3)C(=O)O2)C(=O)NS(=O)(=O)C1CC1 [VAN, vaniprevir]",,2 to 20
